# Experimental data: PubChem BioAssay AID504834 (National Center for Advancing Translational Sciences (NCATS), 2011)
# In all, about 320,000 compounds went through this assay and about 22,000 (6.9%) were called active. The shares of active, inactive and inconclusive entries below differ from those in the screen. Calls come from the whole dose curve; as a rule, active = well fitted inhibition curve with a large enough effect; inconclusive = small, poorly fitted or top-dose-only effect, or another doubt; inactive = no such curve, though single readings can be large or run the other way. Potencies beside an inconclusive call are fits to weak or partial responses and may not hold up.
# Test: Primary qHTS for delayed death inhibitors of the malarial parasite plastid, 96 hour incubation
# Settings: P. falciparum luciferase reporter growth; series mostly up to 28.7 µM; activity change, negative = inhibition: at the top concentration
# Summary of the method: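 Infected RBCs, 2% Hct / 0.05% parasitemia final; luciferase-reporter P. falciparum; cpd 96 h, 37 C, 5% CO2; luciferase detection reagent; luminescence.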
# % is set by controls: 0 for no effect and ±100 for the full control effect; potency is the fitted concentration of half-maximal effect.
SMILES,"activity change, negative = inhibition",Potency
COC(=O)c1cc(S(=O)(=O)N2CCN(C(=O)c3ccco3)CC2)cn1C,inactive: 3.24%,
Cc1ccccc1C(=O)N1CCN(c2ccc([N+](=O)[O-])c(NCc3ccco3)c2)CC1,,"inconclusive: 5.22 µM [inhibitor, partial curve]"
Cc1ccc(C(=O)Nc2c[nH]c(=O)[nH]c2=O)cc1,inactive: 8.36%,
COc1ccc(CCNC(=O)CCCn2c(=O)c3cccn3c3cccnc32)c(OC)c1,,active: 10.4 µM
Cc1ccc(/C=C2/NC(=O)N(Cc3ccccc3)C2=O)o1,inactive: -17.8%,
CC1CC2(C)Oc3ccccc3CC2C(C)C1CNCCCN(C)C (stereo unspecified),,"inconclusive: 1.17 µM [inhibitor, full curve]"
Cc1coc2c1c(C)cc1oc(=O)c(CC(=O)NCCCCCC(=O)O)c(C)c12,inactive: 5.38%,
CC12CCC(C(=O)N(c3ccc(Cl)cc3)C1=O)C2(C)C (stereo unspecified),inactive: 4.24%,
CCc1ccc(C(=O)CN(C#N)c2nc(C)cc(C)n2)cc1,,"inconclusive: 10.4 µM [inhibitor, single point]"
Cc1ccc(N=C2c3ccccc3C(=O)C2[N+](=O)[O-])cc1C (stereo unspecified),,"inconclusive: 10.4 µM [inhibitor, single point]"
COc1ccc(C(C)C)cc1S(=O)(=O)N1CCC(C(=O)NCc2cccnc2)CC1,,"inconclusive: 11.7 µM [inhibitor, partial curve]"
CCC(C)[C@H]1CNCCN1CCC12CC3CC(CC(C3)C1)C2 (stereo partly specified),,"inconclusive: 3.29 µM [inhibitor, single point]"
Cc1ccc(/C=C/C(=O)C2C(=O)c3ccccc3C2=O)cc1,,"inconclusive: 0.415 µM [inhibitor, full curve]"
Cc1ccc(NC(=O)[C@@H](C)NC(=O)[C@@H]2Cc3ccccc3CN2)cc1,inactive: 14.2%,
Fc1ccc(-c2cc(C(F)(F)F)nc(NCC3CCCO3)n2)cc1 (stereo unspecified),,"inconclusive: 20.8 µM [inhibitor, single point]"
Cc1cccc(C)c1NC(=O)CN(C)C(C)C(=O)Nc1ccccc1-c1ccccc1 (stereo unspecified),,"inconclusive: 5.86 µM [inhibitor, partial curve]"
CCCOC(=O)Nc1ccc(C(N)=O)cc1,inactive: -2.55%,
COc1ccc(S(=O)(=O)Nc2ccccc2C)cc1C(=O)N1CCOCC1,,"inconclusive: 0.928 µM [inhibitor, partial curve, poor fit]"
O=C1CCCc2nc(NCc3ccco3)ncc21,inactive: 27.3%,
COc1cccc(OC)c1C(=O)Nc1ccc2nc(C)c(C)nc2c1,,"inconclusive: 7.38 µM [inhibitor, partial curve, poor fit]"
Cc1cc2cc(CCNC(=O)C3c4ccccc4Oc4ccccc43)c(=O)[nH]c2cc1C,inactive: -15.5%,
COc1ccc(COC(=O)c2cc(S(=O)(=O)N3CCCCC3)ccc2N2CCOCC2)cc1,inactive: 21.2%,
COc1cc(/C=N/NC(=O)c2ccccc2)ccc1O,inactive: 31.3%,
Cc1cccc(N2CCN(C(=O)CCS(=O)(=O)c3ccc4c(c3)oc(=O)n4C)CC2)c1C,,active: 9.28 µM

SMILES,"activity change, negative = inhibition",Potency
Cc1cccc(C(=O)Nc2c(C#N)c(C)c(C)n2Cc2ccccc2)c1,,"inconclusive: 13.1 µM [inhibitor, single point]"
O=[N+]([O-])c1cc2c(cc1CN1CCN(c3ccccc3)CC1)OCO2,,"inconclusive: 18.5 µM [inhibitor, single point]"
Cn1c(N)c(C(=O)COC(=O)CSc2ccc3ccccc3c2)c(=O)n(C)c1=O,inactive: -1.07%,
CC(=O)N(C1=NCCCS1)c1ccc(F)cc1,,"inconclusive: 13.1 µM [inhibitor, single point]"
N#C/C(=C\c1cccc(O)c1)C(=O)Nc1ccc2c(c1)OCCO2,inactive: -22.4%,
Cc1oc2c(O)c(O)ccc2c(=O)c1-c1cnn(-c2ccccc2)c1,inactive: -14.6%,
CC(=O)OC1OCCOC1NC(=S)Nc1cccc(C(F)(F)F)c1 (stereo unspecified),inactive: 23.3%,
CCn1c(SCc2cccc(C)c2)nnc1-c1ccc(C)cc1,,"inconclusive: 13.1 µM [inhibitor, partial curve]"
Cc1ccccc1-n1c(SCC(=O)N/N=C/c2c(C)nn(-c3ccccc3)c2C)nc2ccccc2c1=O,,"inconclusive: 18.5 µM [inhibitor, single point]"
Cc1cccc(N=Nc2c(N)n[nH]c2-c2ccc(Cl)cc2)c1,,"inconclusive: 18.5 µM [inhibitor, single point]"
CCOC(=O)C1=C(C)NC(C)=C(C(=O)OCC)C1C(=O)OCC(=O)N1c2ccccc2CC1C (stereo unspecified),,"inconclusive: 11.7 µM [inhibitor, single point]"
CCOC(=O)C1CCCN(C(=O)c2cccc(S(=O)(=O)N3CCCC3)c2)C1 (stereo unspecified),,"inconclusive: 20.8 µM [inhibitor, partial curve, poor fit]"
O=C(NCCN1CCOCC1)c1ccccc1Cl,,"inconclusive: 14.7 µM [inhibitor, partial curve, poor fit]"
O=C(CN1C(=O)NC2(CCCC2)C1=O)N1CCN(S(=O)(=O)c2cc(Cl)ccc2Cl)CC1,,"inconclusive: 0.415 µM [inhibitor, full curve, poor fit]"
Cc1cc(-c2nnc(CCC(=O)NC(C)c3ccc(F)cc3)o2)no1 (stereo unspecified),,"inconclusive: 1.85 µM [inhibitor, partial curve, poor fit]"
COc1ccc(CNCc2cc(C)c(OC)cc2C)c(OC)c1,,"inconclusive: 18.5 µM [inhibitor, single point]"
O=C(Nc1ccc2oc(-c3ccc4ccccc4c3)nc2c1)c1ccc2c(c1)OCCO2,inactive: 92.8%,
Cc1ccc(C(=O)O/N=C(\N)c2ccccn2)c(C)c1,inactive: 33.1%,
COc1cccc(-n2c(SCc3c(C)noc3C)nnc2-c2cccc(S(=O)(=O)N(C)C)c2)c1,,"inconclusive: 18.5 µM [inhibitor, single point]"
CCc1cc2c(=O)c(-c3nc4ccccc4n3C)coc2c(CN2CCCCC2C)c1O (stereo unspecified),,"inconclusive: 13.1 µM [inhibitor, partial curve, poor fit]"
COc1ccccc1C(=O)N/C(=C\c1cn(C)c2ccccc12)C(=O)N1CCCC1,,"inconclusive: 9.28 µM [inhibitor, single point]"
CC(C)(C)C(=O)NC(=S)Nc1ccccc1F,inactive: 0%,
CCCc1nn2c(=O)cc(COc3ccc(NC(=O)c4ccco4)cc3)nc2s1,,"inconclusive: 1.17 µM [inhibitor, partial curve, poor fit]"
Nc1nc(SCc2nc3sc4c(c3c(=O)[nH]2)CCCC4)n[nH]1,inactive: -6.51%,

# Random excerpt: six entries already listed.
SMILES,"activity change, negative = inhibition",Potency
Cc1ccccc1C(=O)N1CCN(c2ccc([N+](=O)[O-])c(NCc3ccco3)c2)CC1,,"inconclusive: 5.22 µM [inhibitor, partial curve]"
CC(=O)OC1OCCOC1NC(=S)Nc1cccc(C(F)(F)F)c1 (stereo unspecified),inactive: 23.3%,
CC(=O)N(C1=NCCCS1)c1ccc(F)cc1,,"inconclusive: 13.1 µM [inhibitor, single point]"
CCn1c(SCc2cccc(C)c2)nnc1-c1ccc(C)cc1,,"inconclusive: 13.1 µM [inhibitor, partial curve]"
CCCOC(=O)Nc1ccc(C(N)=O)cc1,inactive: -2.55%,
COc1ccccc1C(=O)N/C(=C\c1cn(C)c2ccccc12)C(=O)N1CCCC1,,"inconclusive: 9.28 µM [inhibitor, single point]"

# (continued)

SMILES,"activity change, negative = inhibition",Potency
COc1cc(/C=C(\C#N)C(=O)Nc2ccc(SC(F)F)cc2)cc(OC)c1OC,,active: 5.22 µM
O=S(=O)(Cc1ccccc1)N1CCN(C/C=C/c2ccccc2)CC1,,"inconclusive: 4.15 µM [inhibitor, partial curve, poor fit]"
CC(/C=C/c1ccccc1)=N\NC(=O)Cn1nc(C)cc1C,,"inconclusive: 13.1 µM [inhibitor, single point]"
O=[N+]([O-])c1cc(/C=N/OCc2c(Cl)cccc2Cl)ccc1N1CCOCC1,,"inconclusive: 18.5 µM [inhibitor, single point]"
Cc1ccc2nc(SCC(=O)N3CCN(c4ccccc4)CC3)nc(=O)n2c1,,"inconclusive: 10.4 µM [inhibitor, single point]"
COc1ccc(-c2csc(NC3OC(=O)c4ccccc43)n2)cc1 (stereo unspecified),,"inconclusive: 13.1 µM [inhibitor, single point]"
COc1ccc(CN(C)C(=O)c2ccc(NC(=O)CC3SC(N4CCCC4)=NC3=O)cc2)c(OC)c1 (stereo unspecified),,"inconclusive: 9.28 µM [inhibitor, partial curve]"
Cc1cc(S(=O)(=O)NCc2ccccc2)ccc1OCC(=O)N1CCN(C)CC1,,"inconclusive: 0.329 µM [inhibitor, full curve, poor fit]"
COc1ccc(/C=C2\C(=O)NCC(=O)N2Cc2ccccc2)cc1,inactive: 3.39%,
COc1cccc(NC(=O)CN(C)C(=O)CCCc2nc3ccccc3c(=O)[nH]2)c1,inactive: -9.27%,
O=C(c1ccc(N2CCN(C(=O)c3ccc(F)cc3F)CC2)cc1)c1cccc(F)c1,,active: 10.4 µM
c1ccc(Cc2nnc(N3CCCCC3)c3ccccc23)cc1,,"inconclusive: 13.1 µM [inhibitor, single point]"
CCC(=O)Nc1cccc(C(=O)Nc2nccs2)c1,inactive: 121%,
CCc1ccc(C(=O)CN2C(=O)NC3(CCc4ccccc43)C2=O)cc1 (stereo unspecified),,"inconclusive: 18.5 µM [inhibitor, single point]"
C(=N\Nc1ncnc2sc3c(c12)CCC3)/c1cccs1,,"inconclusive: 18.5 µM [inhibitor, single point]"
Cc1ccccc1CNC(=O)Cn1cnc(S(=O)(=O)N2CCCC2)c1,,"inconclusive: 18.5 µM [inhibitor, single point]"
Cc1ccccc1NC(=O)CSc1nnc(-c2ccccn2)o1,inactive: 19.7%,
C1CCC(c2nn3c(-c4n[nH]c5c4CCC5)nnc3s2)CC1,,"inconclusive: 18.5 µM [inhibitor, single point]"
Fc1ccc(-n2c(-c3cccs3)nc3nc4ccccc4nc32)cc1,,"inconclusive: 11.7 µM [inhibitor, single point]"
O=C(CSCc1ccccc1)Nc1ccc(F)c(F)c1,inactive: -1.83%,
CCS(=O)(=O)N1CCC(C(=O)NCc2ccc(F)cc2Cl)CC1,,"inconclusive: 18.5 µM [inhibitor, single point]"
Cc1cc(C)nc(NS(=O)(=O)c2ccc(NC(=O)C3COc4ccccc4O3)cc2)n1 (stereo unspecified),,"inconclusive: 11.7 µM [inhibitor, partial curve, poor fit]"
CCc1ccccc1N(C)S(=O)(=O)c1ccc(-c2cc(C)no2)s1,,"inconclusive: 13.1 µM [inhibitor, single point]"
